Measured values reported in paper PMC12187329.
No constants are given. Whether binding was seen depends on the method and setting. In cells and extracts the contact can be indirect. Some results given as binding are weak or reduced against the parent protein; the word gives no strength. Each block holds one substance with its values, some of them ahead of it.

By UniProt entry, the sequences of proteins in these tests, tags left out. Where a name states a change or a piece, a line headed by the entry shows the natural chain unless it says otherwise.
UniProt Q13263: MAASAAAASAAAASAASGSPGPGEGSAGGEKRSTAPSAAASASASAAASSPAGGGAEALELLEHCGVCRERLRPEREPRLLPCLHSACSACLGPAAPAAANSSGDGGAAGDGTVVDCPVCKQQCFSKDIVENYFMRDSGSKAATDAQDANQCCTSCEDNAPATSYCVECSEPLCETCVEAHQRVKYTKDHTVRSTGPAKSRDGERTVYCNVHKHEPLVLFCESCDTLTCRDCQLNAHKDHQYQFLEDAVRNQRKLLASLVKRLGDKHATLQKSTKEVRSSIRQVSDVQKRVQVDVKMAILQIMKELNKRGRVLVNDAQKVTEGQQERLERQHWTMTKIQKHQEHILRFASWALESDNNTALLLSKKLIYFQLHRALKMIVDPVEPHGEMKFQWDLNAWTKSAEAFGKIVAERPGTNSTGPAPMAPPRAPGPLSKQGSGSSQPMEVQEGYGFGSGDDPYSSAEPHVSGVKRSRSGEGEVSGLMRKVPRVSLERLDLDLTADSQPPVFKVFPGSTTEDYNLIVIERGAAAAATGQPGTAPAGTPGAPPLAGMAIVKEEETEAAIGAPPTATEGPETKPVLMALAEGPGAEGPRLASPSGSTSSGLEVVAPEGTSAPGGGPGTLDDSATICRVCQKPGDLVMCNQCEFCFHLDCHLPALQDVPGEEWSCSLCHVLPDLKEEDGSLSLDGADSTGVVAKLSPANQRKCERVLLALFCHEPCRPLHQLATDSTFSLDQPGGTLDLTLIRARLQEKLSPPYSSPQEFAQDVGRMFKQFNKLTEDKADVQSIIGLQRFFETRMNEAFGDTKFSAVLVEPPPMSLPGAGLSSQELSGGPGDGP
UniProt Q92508: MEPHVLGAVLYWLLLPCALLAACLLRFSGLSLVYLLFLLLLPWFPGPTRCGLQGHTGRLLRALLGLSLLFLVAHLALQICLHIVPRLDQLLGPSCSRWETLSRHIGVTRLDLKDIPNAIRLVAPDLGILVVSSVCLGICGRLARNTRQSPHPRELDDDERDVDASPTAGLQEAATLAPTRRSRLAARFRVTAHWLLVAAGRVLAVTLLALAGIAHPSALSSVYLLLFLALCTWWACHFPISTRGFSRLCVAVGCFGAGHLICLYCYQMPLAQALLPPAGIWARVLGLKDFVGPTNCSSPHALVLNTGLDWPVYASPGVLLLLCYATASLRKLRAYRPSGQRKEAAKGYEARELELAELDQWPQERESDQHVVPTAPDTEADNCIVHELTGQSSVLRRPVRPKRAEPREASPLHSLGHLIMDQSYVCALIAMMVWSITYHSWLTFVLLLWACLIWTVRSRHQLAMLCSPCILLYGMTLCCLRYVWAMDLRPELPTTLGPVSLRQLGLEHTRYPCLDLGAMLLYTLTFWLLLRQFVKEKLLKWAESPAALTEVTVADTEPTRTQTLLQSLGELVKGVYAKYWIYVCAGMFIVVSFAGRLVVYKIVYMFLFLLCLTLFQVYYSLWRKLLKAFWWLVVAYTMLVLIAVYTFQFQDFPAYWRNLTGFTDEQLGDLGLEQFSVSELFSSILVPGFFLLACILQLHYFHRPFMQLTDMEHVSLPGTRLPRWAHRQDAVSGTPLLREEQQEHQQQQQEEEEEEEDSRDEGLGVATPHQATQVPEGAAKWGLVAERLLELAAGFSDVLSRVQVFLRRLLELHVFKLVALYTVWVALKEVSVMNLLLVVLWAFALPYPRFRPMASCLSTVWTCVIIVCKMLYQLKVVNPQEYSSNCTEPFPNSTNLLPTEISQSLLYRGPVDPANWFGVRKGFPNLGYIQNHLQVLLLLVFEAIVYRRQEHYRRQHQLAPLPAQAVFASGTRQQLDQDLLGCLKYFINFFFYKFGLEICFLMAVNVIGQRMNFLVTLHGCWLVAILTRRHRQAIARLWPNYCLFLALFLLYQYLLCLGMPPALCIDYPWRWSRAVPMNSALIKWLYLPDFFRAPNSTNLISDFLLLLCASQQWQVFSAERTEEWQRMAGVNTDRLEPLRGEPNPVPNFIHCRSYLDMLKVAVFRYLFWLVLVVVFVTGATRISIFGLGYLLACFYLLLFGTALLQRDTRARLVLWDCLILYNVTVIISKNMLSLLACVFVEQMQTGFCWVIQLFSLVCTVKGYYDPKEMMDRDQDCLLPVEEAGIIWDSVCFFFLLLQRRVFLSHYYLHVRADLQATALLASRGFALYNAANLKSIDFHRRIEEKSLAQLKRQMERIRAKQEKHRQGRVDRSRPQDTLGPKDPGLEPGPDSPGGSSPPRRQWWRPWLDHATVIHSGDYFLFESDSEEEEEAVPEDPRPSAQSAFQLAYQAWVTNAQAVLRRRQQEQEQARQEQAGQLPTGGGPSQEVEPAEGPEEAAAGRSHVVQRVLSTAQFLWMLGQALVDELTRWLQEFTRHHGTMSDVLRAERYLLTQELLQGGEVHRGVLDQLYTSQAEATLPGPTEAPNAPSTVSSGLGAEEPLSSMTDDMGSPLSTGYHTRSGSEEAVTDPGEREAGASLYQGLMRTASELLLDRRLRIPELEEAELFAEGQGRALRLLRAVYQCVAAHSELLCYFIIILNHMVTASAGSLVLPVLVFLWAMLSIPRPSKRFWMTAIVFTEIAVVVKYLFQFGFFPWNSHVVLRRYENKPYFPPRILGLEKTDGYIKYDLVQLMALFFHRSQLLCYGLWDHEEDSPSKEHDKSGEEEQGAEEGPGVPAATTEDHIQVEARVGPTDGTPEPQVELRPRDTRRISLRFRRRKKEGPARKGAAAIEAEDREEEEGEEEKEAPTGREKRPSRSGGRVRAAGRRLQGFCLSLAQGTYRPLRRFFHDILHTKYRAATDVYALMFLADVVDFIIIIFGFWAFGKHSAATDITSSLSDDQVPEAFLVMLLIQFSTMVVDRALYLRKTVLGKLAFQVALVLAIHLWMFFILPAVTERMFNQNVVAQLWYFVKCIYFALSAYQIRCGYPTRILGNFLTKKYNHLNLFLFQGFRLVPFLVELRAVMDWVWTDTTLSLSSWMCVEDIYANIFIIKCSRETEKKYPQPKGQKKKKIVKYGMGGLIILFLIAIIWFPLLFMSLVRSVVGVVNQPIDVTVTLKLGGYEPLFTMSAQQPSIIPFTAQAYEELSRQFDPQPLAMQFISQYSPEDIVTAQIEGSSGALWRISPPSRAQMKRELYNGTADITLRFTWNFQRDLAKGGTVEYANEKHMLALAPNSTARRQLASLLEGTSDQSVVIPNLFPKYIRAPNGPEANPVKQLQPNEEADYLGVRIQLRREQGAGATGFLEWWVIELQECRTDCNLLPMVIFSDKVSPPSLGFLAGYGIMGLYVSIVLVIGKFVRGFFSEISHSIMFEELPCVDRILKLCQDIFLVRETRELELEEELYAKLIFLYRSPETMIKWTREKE
UniProt Q96AC1: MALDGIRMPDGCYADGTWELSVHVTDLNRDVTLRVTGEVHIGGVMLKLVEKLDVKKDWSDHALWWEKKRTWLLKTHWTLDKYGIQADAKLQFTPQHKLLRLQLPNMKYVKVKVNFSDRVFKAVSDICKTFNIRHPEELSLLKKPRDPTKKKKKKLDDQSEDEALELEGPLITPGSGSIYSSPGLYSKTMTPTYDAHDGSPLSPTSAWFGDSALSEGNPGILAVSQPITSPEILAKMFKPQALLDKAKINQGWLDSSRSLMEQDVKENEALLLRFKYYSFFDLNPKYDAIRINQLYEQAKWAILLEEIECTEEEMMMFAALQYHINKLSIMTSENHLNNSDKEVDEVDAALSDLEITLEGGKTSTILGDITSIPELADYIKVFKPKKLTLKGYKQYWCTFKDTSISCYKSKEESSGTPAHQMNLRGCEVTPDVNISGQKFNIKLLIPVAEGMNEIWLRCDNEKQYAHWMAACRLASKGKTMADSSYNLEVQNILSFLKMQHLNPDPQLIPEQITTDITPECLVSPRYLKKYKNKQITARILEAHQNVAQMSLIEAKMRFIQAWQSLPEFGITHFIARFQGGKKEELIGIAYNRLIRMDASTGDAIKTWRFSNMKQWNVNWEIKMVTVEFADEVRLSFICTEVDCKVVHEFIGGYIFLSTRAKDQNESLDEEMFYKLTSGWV

Assays:
[1] = biological target: Trim28 (in the Co-IP with Kindlin-2 truncations) (UniProt Q13263); experiment: co-IP; plasmids expressing different truncations of Kindlin-2; Co-IP (Fig. S8M); cells not given
[2] = biological target: Piezo1 (in the Co-IP with Kindlin-2 truncations) (UniProt Q92508); experiment: as above
[3] = biological target: KINDLIN-2 (human (endogenous in HUVECs)) (UniProt Q96AC1); experiment: co-IP; Co-IP of KINDLIN-2 and PIEZO1 (Fig. S8F, S8G); cells, bait and conditions not stated in the text shown
[4] = biological target: KINDLIN-2 (human (endogenous in HUVECs)) (UniProt Q96AC1); experiment: co-IP; cell lysates from HUVECs used for IP and IB; endogenous proteins
[5] = biological target: PIEZO1 (human (endogenous in HUVECs)) (UniProt Q92508); experiment: as above

binding [1]: binds
Substance: Kindlin-2 aa1-239 (from UniProt Q96AC1 1-239) (domain or fragment)

binding [2]: binds
Substance: Kindlin-2 aa1-569 (from UniProt Q96AC1 1-569) (domain or fragment)

binding [3]: binds
Substance: PIEZO1 (from UniProt Q92508 1-2521)

binding [4]: binds
binding [5]: binds
Substance: TRIM28 (from UniProt Q13263 1-835)
